Measured values reported in patent publication US20140051645A1 (Pieris, published 2014).
Results are given in words; binding and its absence hold for the method and conditions named. Some binding calls cover weakened binding; strength is not graded here.

Biological target: T1, human CTLA-4-Fc (Chimerigen) (human, UniProt P16410 36-161, limits assumed)
T1 construct: Bought fusion protein; also called hCTLA4-Fc; not shown: It was captured by an anti-human IgG-Fc antibody
T1 sequence (looked up): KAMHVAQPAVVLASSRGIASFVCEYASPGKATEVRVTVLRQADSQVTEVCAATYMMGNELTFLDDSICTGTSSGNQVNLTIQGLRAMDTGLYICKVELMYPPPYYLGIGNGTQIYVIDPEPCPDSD
Experiment: screening ELISA of crude lysates: mutein captured by T7 mAb, limited soluble human CTLA4-Fc; in some cases competition ELISA with mAb BNI3
Description: Therein, NGAL variants equipped with a T7 detection tag (Novagen) as well as a Strep-tag II affinity tag (IBA) were soluble expressed in a 96 well microtiter plate using the E. coli strain TG1/F with phNGAL37 SEQ ID NO: 10. This vector corresponds to phNGAL15 SEQ ID NO: 11 as described in the following example 4 with an N-terminal T7 tag consisting of 11 amino acids ([…]). Lipocalin mutein expression was induced overnight at 22° C. at 700 rpm with anhydrotetracycline (0.2 μg/ml) at an OD₅₅₀ of 0.6. Afterwards, cells were lysed (100 mM Na-borate, pH 8.0, 80 mM NaCl, 1 mM EDTA, 0.025% w/v lysozyme) for 1 h under agitation. […]
In a reverse ELISA approach soluble expressed muteins from the crude cell lysate were captured via immobilized T7 mAb (5 μg/ml, Novagen) on wells of black Fluotrac 600 ELISA plates (Greiner; 384 well). […] Subsequently plates were washed five times and bound target was detected via an goat anti-human Fc monoclonal antibody-HRP conjugate (Jackson ImmunoResearch), diluted 1:5.000 in PBST/0.1. […] After 45 min of signal development at room temperature fluorescence was excited at a wavelength of 320 nm (±12.5 nm) and measured at 430 nm (±17.5 nm) in a GENiosPlus plate reader (Tecan). […]

B1: SEQ ID NO 12 (designed binder)
chain: MASMTGGQQMGQDSTSDLIPAPPLSKVPLQQNFQDNQFHGKWYVVGLAGNRLLRDDQHPMDMYATIYELKGDKSYNVTSVISSHKKCLYPIATFVPGSQPGEFTLGNIKSYGDKWSYLVRVVSTDYNQYAVVFFKHADTNYESFSITIYGRTKELASELKENFIRFSKSLGLPENHIVFPVPIDQCIDG
binding: binds
